According to PubChem BioAssay AID1487 (National Center for Advancing Translational Sciences (NCATS), 2009):
This is one part of the list. Shown are side measurements of this screen, not its main read-out; they come without a call. Compounds called inactive in the main read-out are mostly missing here. Words in brackets tell the shape of the fitted curve; partial curves, single points and poor fits give uncertain potencies.

Test: qHTS Assay for Modulators of Lamin A Splicing
Conditions: HeLa LMNA splicing GFP/RFP minigene ratio, 48 h
In short: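 Read-out is the ratio of GFP to DsRed2 object intensity, acquired by 488 nm laser-scanning cytometry on HeLa lamin A-EGFP minigene reporter cells. Compound incubation 48 hrs at 37 °C in Opti-MEM with 2% FBS; DMSO 0.5% final.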

[1] = measured here: RFP viability control channel
[2] = measured here: GFP splicing reporter channel

With `Cc1cc(C)c(C)c(S(=O)(=O)N2CCN(CC(=O)NC(=O)NCc3ccccc3)CC2)c1C` the AC50 [1] was 0.708 µM [falling, full curve].

For `O=c1[nH]c2ccccc2n1Cc1ccc(Cl)cc1`, the AC50 [1] was 20 µM [rising, single point].

For `O=S(=O)(c1ccc(Oc2ccc(Br)cc2F)nc1)N1CCCCC1`, the AC50 [2] was 11.2 µM [rising, partial curve] and the AC50 [1] was 31.6 µM [rising, single point].

For `Cc1ccc(-c2nnc(SCC(=O)c3ccc(Cl)cc3)n2-c2ccccc2)cc1`, the AC50 [1] was 35.5 µM [falling, single point].

With `O=c1c2ccccc2nc(SCc2cccc(F)c2)n1Cc1ccco1` the AC50 [1] was 10 µM [rising, partial curve].

In the case of `Cc1cc(/C=N/n2cnnc2)c(C)n1-c1ccc(Cl)cc1`, the AC50 [2] was 28.2 µM [falling, partial curve, poor fit].

For `COc1cc(/C=N\Nc2ccc([N+](=O)[O-])cc2)ccc1OCC(=O)Nc1ccc(C)c(C)c1`, the AC50 [2] was 5.62 µM [falling, single point] and the AC50 [1] was 3.98 µM [falling, partial curve, poor fit].

With `N/C(=N\OC(=O)COc1ccc2ccccc2c1Br)c1cccnc1` the AC50 [1] was 14.1 µM [rising, single point].

For `COc1ccc(CNc2nc3ccccc3n2Cc2ccc(C)cc2)cc1OC`, the AC50 [1] was 10 µM [rising, partial curve].

In the case of `Cc1ccsc1/C=N\NC(=O)Cn1nnc2ccccc21`, the AC50 [1] was 20 µM [rising, single point].

For `CCn1c2c(c3cc(OCC(C)C)ccc31)CCCC2=O`, the AC50 [2] was 15.8 µM [rising, partial curve, poor fit] and the AC50 [1] was 10 µM [rising, partial curve, poor fit].

With `C#CCN1C(=O)C(O)(CC(=O)/C=C/c2ccco2)c2ccccc21` (configuration not stated) the AC50 [2] was 0.01 µM [rising, full curve, poor fit] and the AC50 [1] was 0.00794 µM [rising, full curve].

In the case of `c1ccc(N(c2ccccc2)c2nc(-n3ccnc3)nc(-n3ccnc3)n2)cc1`, the AC50 [2] was 0.891 µM [falling, partial curve, poor fit].

For `Cc1oc(-c2ccccc2F)nc1CS(=O)(=O)CC(=O)N1CCN(Cc2ccccc2)CC1`, the AC50 [2] was 35.5 µM [rising, single point] and the AC50 [1] was 35.5 µM [rising, single point].

For `CCn1nc(C(=O)Nc2ccc(S(=O)(=O)Nc3ncccn3)cc2)c2ccccc2c1=O`, the AC50 [2] was 0.447 µM [falling, partial curve].

With `Cc1c(Cl)cccc1NC(=O)Cn1cccc1` the AC50 [1] was 0.631 µM [falling, partial curve, poor fit].

With `CCc1[nH]nc2c1C(C(C)C)C(C#N)=C(N)O2` (configuration not stated) the AC50 [1] was 15.8 µM [rising, partial curve].

For `Brc1ccc(CSc2nnc(-c3ccccn3)n2Cc2ccco2)cc1`, the AC50 [2] was 35.5 µM [rising, single point] and the AC50 [1] was 35.5 µM [rising, single point].

In the case of `Cn1c(CSc2nc3ccccc3s2)nnc1SCC(=O)NCCCN1CCOCC1`, the AC50 [1] was 5.62 µM [rising, single point].

In the case of `CCn1nc(C)c(NC(=O)c2cc(Br)ccc2Cl)c1C`, the AC50 [2] was 4.47 µM [falling, partial curve] and the AC50 [1] was 3.98 µM [falling, partial curve, poor fit].

In the case of `CCN(CC)C(=S)SCC(=O)Nc1nc(-c2ccccc2)c(-c2ccccc2)o1`, the AC50 [1] was 11.2 µM [rising, partial curve].

In the case of `CCOc1ccc(NC(=S)N(CCc2c(C)[nH]c3ccc(C)cc23)Cc2ccncc2)cc1`, the AC50 [2] was 10 µM [rising, partial curve] and the AC50 [1] was 11.2 µM [rising, partial curve].

For `CCn1cc(CN2CCN(Cc3ccsc3)C(CCO)C2)cn1` (configuration not stated), the AC50 [1] was 0.00316 µM [falling, full curve, poor fit].

In the case of `CCC(CC)c1nnc(NC(=O)c2c(C)nn(Cc3ccccc3Cl)c2C)s1`, the AC50 [2] was 17.8 µM [rising, partial curve, poor fit] and the AC50 [1] was 20 µM [rising, partial curve, poor fit].

With `CC(=O)Cn1nnc2sc3c(c2c1=O)CCC(C(C)(C)C)C3` (configuration not stated) the AC50 [2] was 0.0447 µM [rising, full curve].

With `O=C(Cn1c2ccc(F)cc2c2nc3n(c(=O)c21)CCS3)Nc1ccccc1F` the AC50 [2] was 10 µM [falling, partial curve] and the AC50 [1] was 11.2 µM [falling, single point].

With `Cc1cc(C)cc(N2CC(O)=C(c3nc4ccccc4c(=O)[nH]3)C2=N)c1` the AC50 [1] was 35.5 µM [falling, single point].

With `COc1cc(S(=O)(=O)N2CCOCC2)ccc1NC(=O)CSc1n[nH]c(=O)[nH]c1=O` the AC50 [1] was 3.55 µM [rising, single point].

For `CCC(CC)C1=NN2C(=N)/C(=C\c3cc(C)n(-c4cccc(C)c4)c3C)C(=O)N=C2S1`, the AC50 [1] was 12.6 µM [rising, partial curve].

For `CC(C)(C)C(=O)NC(=S)NNC(=O)c1sc2ccccc2c1Cl`, the AC50 [2] was 12.6 µM [falling, partial curve].

In the case of `Cc1ccc(/C=C/C(=O)Nc2sc(C)c(C)c2C(=O)OC(C)C)o1`, the AC50 [1] was 2.82 µM [rising, full curve].

For `O=C1CN(/N=C/c2ccc(-c3ccc([N+](=O)[O-])cc3)o2)C(=O)N1`, the AC50 [2] was 6.31 µM [rising, single point] and the AC50 [1] was 6.31 µM [rising, single point].

In the case of `CCN(CC)S(=O)(=O)c1cccc(-c2nnc(SC(C)C(=O)NCCC3=CCCCC3)o2)c1` (configuration not stated), the AC50 [1] was 35.5 µM [rising, single point].

For `CN1CCC(=NNC(=O)CN(c2ccc(Oc3ccccc3)cc2)S(C)(=O)=O)CC1`, the AC50 [1] was 28.2 µM [rising, partial curve, poor fit].

In the case of `Cc1ccc(C)c(C(=O)Cn2ncc(Cl)c(Cl)c2=O)c1`, the AC50 [1] was 11.2 µM [falling, partial curve].

For `COc1ccc(-c2cc(-c3ccc(N)cc3)nc(N)c2C#N)cc1OC`, the AC50 [2] was 28.2 µM [falling, partial curve, poor fit].
